What all share (assay): protein microarray (ProtoArray v5.0), streptavidin-Alexa Fluor 647
Holding throughout (settings): 3'-biotin; 20 mM Tris (pH 7.5), 5 mM MgCl2, 100 mM KCl, 0.1% Tween-20, A/T-rich and random oligonucleotide blockers; temperature not stated; high values mean tight binding

Protein sequences, listed by entry. Tags and fused reporters are not part of them. Lines headed by an entry give the natural chain unless they say otherwise; changes in a name come on top.
UniProt Q15527: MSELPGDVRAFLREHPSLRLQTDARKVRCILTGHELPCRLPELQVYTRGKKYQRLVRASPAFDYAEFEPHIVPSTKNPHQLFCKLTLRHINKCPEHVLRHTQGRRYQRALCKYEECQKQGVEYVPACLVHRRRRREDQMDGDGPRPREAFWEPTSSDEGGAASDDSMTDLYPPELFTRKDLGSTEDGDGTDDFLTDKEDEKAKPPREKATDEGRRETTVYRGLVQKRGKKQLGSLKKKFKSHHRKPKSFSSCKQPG

In experiment [1] the test system is SULT1B1 (human).
Experiment [2] relates to SULT2B1 (human).
The target of experiment [3] is SURF2 (UniProt Q15527).
Experiment [4] deals with SURF4 (human).
Experiment [5] concerns SUSD4 (human).
Experiment [6] relates to SWI/SNF-related matrix-associated actin-dependent regulator of chromatin subfamily D member 2 (human).
Experiment [7] deals with SYCE1 (human).
Experiment [8] concerns the target T1, SYCP3 (UniProt Q8IZU3).
T1 sequence: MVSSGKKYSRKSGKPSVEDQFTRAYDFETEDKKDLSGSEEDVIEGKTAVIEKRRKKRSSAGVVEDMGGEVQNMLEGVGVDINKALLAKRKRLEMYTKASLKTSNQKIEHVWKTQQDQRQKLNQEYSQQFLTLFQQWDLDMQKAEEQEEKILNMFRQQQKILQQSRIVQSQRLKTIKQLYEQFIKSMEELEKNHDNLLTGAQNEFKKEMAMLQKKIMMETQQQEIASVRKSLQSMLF

Experiment [9] deals with SYMPK (human).
For experiment [10], the system named is SYNGR2 (human).

“And” between values parts separate entries of the source, which are not always exact repeats. Equal entries are not always repeated. This is one part of the list. For some of these results: The source does not settle which construct or isoform was used.

Take “GGTGACAGGGGTATGGGGAGGGG [G4-2 biotinylated (Ct1)]”: the binding signal in experiment [1] was -0.384 z-score; in experiment [2], -0.394 z-score; in experiment [3], 4.59 z-score; in experiment [4], -0.368 z-score; in experiment [5], -0.394 z-score; in experiment [6], -0.382 z-score. Also, the binding signal in [7] is -0.376 z-score and -0.384 z-score; in [8], 3.54 z-score; in experiment [9], -0.383 z-score; in experiment [10], -0.386 z-score.

The values are drawn from article PMC5996148.
